Experimental findings from PubChem BioAssay AID2685 (National Center for Advancing Translational Sciences (NCATS), 2010) are described below.

Some of the results follow. These are further read-outs of the screen, such as a control signal, another cell line or another target. No call is given for them. Compounds called inactive in the main read-out are mostly missing here. Potencies come from curve fits of mixed quality, noted in brackets.

The nature of the assay: qHTS Assay for Lipid Storage Modulators in Drosophila S3 Cells.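 As to cell number change: cells counted by Cell Tracker Red CMTPX staining in the red channel.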 The following applies: BODIPY lipid droplet fluorescence, 18-24 h; for cell number change: measured here: cell count max response, cells fed with added oleic acid. Summed up: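 Laser-scanning cytometry quantifies lipid droplet accumulation (500–530 nm total intensity; droplet/cell object ratio) in oleic acid-fed (400 uM added) Drosophila S3 cells treated with a concentration series. 20 uM Triacsin C defined 100% inhibition.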

[1] abbreviates: measured here: cell number channel AC50, cells fed with added oleic acid.
The mark [2] stands for this setting: measured here: lipid fluorescence (Fed channel) AC50, cells fed with added oleic acid.

On to `O=C1/C(=C\c2cccc(O)c2O)SC(=S)N1Cc1ccccc1`, for which the cell number change is -38.9%. Besides, under setting [1], the AC50 was 11.6 µM [falling, single point]. For `O=S(=O)(c1cccs1)N1CCN(C/C=C/c2ccccc2)CC1`, the AC50 under setting [2] is 0.58 µM [falling, single point]. Regarding `C=CCSC1=N/C(=C\c2ccc(C(=O)O)cc2)C(=O)S1`, the cell number change was -1.27%. With `NS(=O)(=O)c1ccc(N/N=C2/CCCCC2C2CCCCC2)c([N+](=O)[O-])c1` (stereo not drawn), the cell number change was -92.8%. Besides, the AC50 under setting [1] is 29.1 µM [falling, single point]. As for `NC(=O)C1CC(=O)N(c2ccc(OCC(=O)Nc3ccccc3F)cc2)C1` (stereo not drawn), the cell number change was -16.5%.

For the molecule `Cc1[nH]c2ccccc2c1/C=N/NC(=O)c1cc(-c2ccccc2)n[nH]1`, the cell number change is -21%. Also, the AC50 under setting [2] was 29.1 µM [falling, single point].

For `O=C(Cn1c(CC(=O)N2CCOCC2)nc2ccccc21)Nc1ccc2c(c1)OC(F)(F)O2`, the cell number change was -30.8%. Also, under setting [2], the AC50 was 0.146 µM [falling, full curve, poor fit]. Regarding `COC(=O)C(C(=O)OC)=C(/C=C/N(C)C)N(C)C`, the cell number change is -13.4%. In addition, the AC50 under setting [2] was 4.61 µM [falling, full curve]. With `COc1cc(C2NC(=O)N(C)C(C)=C2C(=O)OCc2ccccc2)cc(Br)c1O` (stereo not drawn), the cell number change is -0.647%. Further, the AC50 under setting [2] was 0.00411 µM [falling, full curve, poor fit]. As for `Cc1cccc(Oc2ccc(Cl)cc2N)c1`, the AC50 reads like this: under setting [1], 6.51 µM [rising, single point]; under setting [2], 2.91 µM [rising, single point]. Take `CN1CCC(NC(=S)Nc2cccc([N+](=O)[O-])c2)CC1`: the cell number change was -29.4%. For the same molecule, the AC50 under setting [1] is 2.59 µM [falling, full curve, poor fit]. Take `O=C(O)CC(C(=O)NC1CCCCC1)C1CCCO1` (stereo not drawn): the cell number change is -15.4%. Moreover, the AC50 under setting [2] is 29.1 µM [falling, single point]. `COc1ccc(C)cc1NC(=O)Cn1cnnn1`: the cell number change is -25%. For the same molecule, the AC50 under setting [1] was 0.366 µM [falling, full curve, poor fit]. The AC50 under setting [2] was 0.00651 µM [falling, full curve, poor fit]. Take `CCC(C)[C@H](NC(=O)[C@@H]1CSC2c3ccccc3C(=O)N21)C(=O)NCC1CCCO1` (stereo partly drawn): the cell number change is -25%.

Turning to `COc1ccc2[nH]c(=O)c(CN(Cc3ccc4c(c3)OCO4)C(C)=O)cc2c1`, the cell number change is 1.81%. For the same molecule, the AC50 under setting [2] was 2.31 µM [rising, full curve]. Regarding `CN(C)c1cccc(N(C)C)c1CNC(=O)NC(=O)c1c(F)cccc1F`, the cell number change is -16.6%.

For `Cc1c(NC(=O)c2ccc(N(C)S(C)(=O)=O)cc2)c(=O)n(-c2ccccc2)n1C`, the cell number change is -29%. The AC50 under setting [2] was 0.411 µM [falling, single point].

Take `CCC(=O)NCCc1nc2cc(NC(=O)c3ccc(OC)cc3)ccc2n1C`: the cell number change came to 34.5%. Also, under setting [1], the half-maximal activity concentration (AC50) was 11.6 µM [rising, partial curve, poor fit]. As to `O=C(c1ccc(-n2cncn2)c([N+](=O)[O-])c1)N1CCN(S(=O)(=O)c2ccccc2Br)CC1`, the AC50 under setting [2] was 0.0651 µM [rising, full curve, poor fit]. Take `O=C(NCCOc1ccccc1)c1cncc(Br)c1`: the cell number change was found to be 24.4%. For the same molecule, the AC50 under setting [2] is 29.1 µM [rising, single point]. Regarding `Cc1ccc(OCC(=O)Nc2ccc(O)c(-c3nc4ccccc4o3)c2)cc1`, the cell number change was -78.7%. The AC50 under setting [1] is 13 µM [falling, partial curve, poor fit]. The AC50 under setting [2] is 29.1 µM [falling, single point]. Consider `CS(=O)(=O)N(CC(=O)NC1CCCCCC1)Cc1ccc(Cl)cc1`, for which the cell number change is -59.6%. In addition, the AC50 under setting [1] is 29.1 µM [falling, single point].

Take `CCOc1ccc(OCCC(=O)OCC(=O)NC2CCCCC2)cc1`: the cell number change amounted to 5.94%. Also, the AC50 under setting [2] was 29.1 µM [rising, single point]. For the molecule `COc1cc(SC#N)ccc1N=Cc1c(C)[nH]n(-c2ccc(C)cc2)c1=O`, the cell number change is -65.1%. The AC50 under setting [1] was 16.4 µM [falling, partial curve]. Under setting [2], the AC50 is 14.6 µM [falling, partial curve]. Take `COc1ccc(S(=O)(=O)N(C)CC(=O)NC2CC2)cc1OC`: the cell number change was 8.42%. Under setting [2], the AC50 was 0.58 µM [rising, single point].

`COC(=O)c1ccc(C23CC4(C2)[C@H](CN(C)[C@@H]4c2ccccc2)C3c2ccc(C(F)(F)F)cc2)cc1` (stereo partly drawn): the cell number change is -1.27%. Moreover, the AC50 under setting [2] was 0.116 µM [rising, full curve, poor fit]. On to `Cc1ccc(N2C(=O)C3C(c4ccccc4)N4CCCN4C3(C)C2=O)cc1` (stereo not drawn), for which the cell number change was 16.2%. Besides, under setting [2], the AC50 was 8.2 µM [falling, partial curve]. Regarding `CCOC(=O)C1CCCN(C(=O)c2cccc(S(=O)(=O)N(C)c3c(C)n(C)n(-c4ccccc4)c3=O)c2)C1` (stereo not drawn), the cell number change was -4.59%. Also, the AC50 under setting [2] was 2.06 µM [falling, single point]. In the case of `Cn1cc(Br)c(C(=O)NC(=S)N2CCN(c3ccccn3)CC2)n1`, the cell number change is 22.6%.

Take `C=CCSC1=Nc2cc(OC)c(OC)cc2C2=NC(=O)CN12`: the cell number change is -26%. As to `COc1ccc(/C=C(/Sc2nnc(-c3ccc(Cl)cc3)o2)C(=O)O)cc1`, the cell number change came out at 35.5%. Regarding `COc1ccc(OC)c(NC(=O)COC(=O)c2ccc(-n3cnnn3)cc2)c1`, the cell number change stood at 0.725%. Besides, the AC50 under setting [2] is 0.731 µM [rising, single point]. Turning to `CN1CCN(c2ccc(NC(=O)COc3cccc4ccccc34)cc2)CC1`, the cell number change came out at 9.66%. Moreover, the AC50 under setting [2] was 6.51 µM [falling, single point].

As for `CCOC(=O)C1CCCN(C(=O)CCn2nc(-c3ccccc3)ccc2=O)C1` (stereo not drawn), the cell number change was -24.8%. In addition, the AC50 under setting [2] is 3.26 µM [rising, partial curve]. With `Cc1ccc(-n2c(CNc3ccc(C)c(Cl)c3)n[nH]c2=S)cc1`, the cell number change is -37.9%. Further, under setting [1], the AC50 is 29.1 µM [falling, single point]. Moreover, the AC50 under setting [2] is 32.6 µM [falling, single point]. Turning to `Cc1cccc(NC(=O)c2cccs2)n1`, the cell number change came to 0.506%. For the same molecule, the AC50 under setting [2] is 10.3 µM [rising, single point]. As to `COc1ccc(C(C)=O)cc1Cn1c(=O)cc(C)[nH]c1=O`, the cell number change is -39.7%. Under setting [1], the AC50 was 14.6 µM [falling, partial curve, poor fit]. In the case of `Cc1c(Cl)cccc1NC(=O)CNC(=O)Cc1c[nH]c2ccccc12`, the cell number change turned out to be 6.84%. Further, under setting [2], the AC50 is 2.06 µM [rising, full curve]. For `Fc1ccc(-c2nc3ccccc3c3nc4ccccc4n23)cc1`, the cell number change is -2.9%. Further, the half-maximal activity concentration (AC50) under setting [2] was 23.1 µM [rising, single point].
